Earlier results, collected in patent publication US20080090906A1, “Use of Acetyl L-Carnitine In Combination With Propionyl L-Carnitine and Sildenafil for the Treatment of Erectile Dysfunction” (SIGMA-TAU INDUSTRIE FARMACEUTICHE RIUNITE S.P.A., priority 2004, published 2008).
At least one compound was matched to its structure with a doubt left.

Key:
[1] = system: patients undergoing rrp; conditions: cited from earlier work
[2] = system: patients undergoing bnsrrp; conditions: cited from earlier work

SMILES	Patients with recovery of sexual function [1]	Patients with recovery of sexual function [2]
CN1CC(=O)N2[C@H](c3ccc4c(c3)OCO4)c3[nH]c4ccccc4c3C[C@@H]2C1=O [tadalafil]	approximately 15%	approximately 45%
CCCc1nc(C)c2c(=O)[nH]c(-c3cc(S(=O)(=O)N4CCN(CC)CC4)ccc3OCC)nn12 [Vardenafil]	approximately 15%	approximately 45%
